In patent publication US12048306B1, “1,3-bis(naphthalen-1-yloxy)propan-2-one as an eco-friendly insecticidal agent against Spodoptera littoralis (boisd.)” (priority 2023, dated 2024):

Test system: Spodoptera littoralis
Assay: Insecticidal leaf dip bioassay on S. littoralis larvae
Conditions: 72 hours of treatment, slope of probit (LDP-line) mortality regression

| Compound | Slope (2nd instar larvae) | Slope (4th instar larvae) |
| --- | --- | --- |
| CCOC(=O)NCCOc1ccc(Oc2ccccc2)cc1 [Fenoxycarb, fenoxycarb, reference compound] | 0.238 ± 0.082 | 0.681 ± 0.251 |
| O=C(COc1cccc2ccccc12)COc1cccc2ccccc12 [III, 1,3-bis(naphthalen-1-yloxy)propan-2-one] | 0.919 ± 0.265 | 0.978 ± 0.256 |
